{"source": "PubChem BioAssay AID540256", "about": "(National Center for Advancing Translational Sciences (NCATS), 2011)", "note": "In all, about 300,000 compounds went through this assay and about 3,700 (1.2%) were called active. This list was built around the results that the source calls inconclusive (neither active nor inactive); the mix of calls is not that of the screen. Calls follow the shape of the full dose curve; tested in HEK293 cells. Where the call is inconclusive, the potency comes from a doubtful curve fit. % is scaled to controls: 0 for no effect and ±100 for the full control effect; potency is read from the fitted curve at half-maximal effect."}
{"test": "qHTS for Inhibitors of binding or entry into cells for Lassa Virus; also: nearly all actives have a fitted effect of over 50% in size", "conditions": "Lassa virus pseudotype entry inhibition, cell reporter; activity change, negative = inhibition: at 37.9 µM (top of the series) unless noted"}
{"compound": "O=C(COc1ccc(Cl)cc1)NCCCNC(=O)c1cccnc1", "Potency": "inconclusive: 35.5 µM [inhibitor, single point]"}
{"compound": "CCOC(=O)c1[nH]c2ccc(Br)cc2c1NC(=O)CCN1CCC(C)CC1", "Potency": "inconclusive: 23.1 µM [inhibitor, single point]"}
{"compound": "CCC(C)NC(=O)c1cc2n(n1)CCCN(Cc1ccc(C)cc1)C2=O", "note": "(centres undefined)", "activity change, negative = inhibition": "inactive: -16.4% [at 46.1 µM]"}
{"compound": "Cc1nn(Cc2ccccc2)c(Cl)c1C(=O)NC1CCCc2ccccc21", "note": "(centres undefined)", "Potency": "inconclusive: 11.6 µM [inhibitor, partial curve, poor fit]"}
{"compound": "Cc1ccc(NC(=O)CN(C)Cc2cc(=O)n3ccsc3n2)cc1", "activity change, negative = inhibition": "inactive: 1.98% [at 46.1 µM]"}
{"compound": "Cc1ccc(S(=O)(=O)c2nc(-c3ccccc3F)oc2N2CC(C)OC(C)C2)cc1", "note": "(centres undefined)", "Potency": "active: 15.8 µM"}
{"compound": "OCCN(CC(O)Cn1ccc2ccccc21)CC(O)Cn1ccc2ccccc21", "note": "(centres undefined)", "Potency": "inconclusive: 2 µM [inhibitor, full curve, poor fit]"}
{"compound": "CCOc1ccc(-c2nn(-c3ccccc3)cc2/C=C2\\SC(=S)N(Cc3ccco3)C2=O)cc1", "Potency": "inconclusive: 7.08 µM [activator, partial curve]"}
{"compound": "O=C(OCc1ccccc1)N1CCc2ccccc21", "Potency": "inconclusive: 35.5 µM [inhibitor, single point]"}
{"compound": "CC(=O)/C=C(\\C)Nc1ccc(-c2cnc(-c3ccccc3)o2)cc1", "Potency": "inconclusive: 22.4 µM [inhibitor, single point]"}
{"compound": "COc1ccccc1C(=O)n1nc(-c2ccccc2)nc1NCc1ccc(Cl)cc1", "activity change, negative = inhibition": "inactive: -16.6% [at 46.1 µM]"}
{"compound": "CN1CCN(c2ccccc2NC(=O)c2ccc3c(c2)OCCO3)CC1", "Potency": "inconclusive: 0.316 µM [inhibitor, partial curve, poor fit]"}
{"compound": "O=C(Nc1ccc(F)cc1)c1cccc2c1C(=O)N(Cc1ccccn1)C2", "Potency": "inconclusive: 0.794 µM [activator, single point]"}
{"compound": "COc1ccc(OCC(O)Cn2c(=N)n(CCN3CCCCC3)c3ccccc32)cc1", "note": "(centres undefined)", "Potency": "inconclusive: 31.6 µM [inhibitor, single point]"}
{"compound": "O=c1c2ccccc2cnn1CCOc1cccc(Br)c1", "Potency": "inconclusive: 1.26 µM [activator, single point]"}
{"compound": "O=[N+]([O-])c1c(Nc2ccccn2)cc(Cl)c2nonc12", "Potency": "inconclusive: 6.31 µM [inhibitor, full curve, poor fit]"}
{"compound": "Nc1nc(CN2CCN(C(c3ccccc3)c3ccccc3)CC2)nc(Nc2ccccc2)n1", "Potency": "inconclusive: 12.6 µM [inhibitor, partial curve, poor fit]"}
{"compound": "Cc1ccc(-c2cc(-c3ccccc3)c(C#N)c(N)n2)o1", "Potency": "inconclusive: 3.16 µM [inhibitor, full curve, poor fit]"}
{"compound": "O=C(CCC1N=C2c3ccccc3N=C(SCc3ccc(Cl)cc3)N2C1=O)NCc1cccs1", "note": "(centres undefined)", "Potency": "inconclusive: 35.5 µM [inhibitor, single point]"}
{"compound": "O=C(Nc1ccc2c(c1)OCO2)N1CCN(S(=O)(=O)c2ccc(Cl)cc2)CC1", "Potency": "inconclusive: 2.91 µM [activator, full curve, poor fit]"}
{"compound": "Cc1cc(C)cc(NC(=O)CSc2ccc(-c3cccs3)nn2)c1", "Potency": "inconclusive: 15.8 µM [inhibitor, single point]"}
{"compound": "CCOC(=O)c1ccc2ncc(C(=O)OCC)c(Nc3ccc(N4CCOCC4)cc3)c2c1", "Potency": "inconclusive: 35.5 µM [inhibitor, single point]"}
{"compound": "COCCNc1nc(-c2ccccc2)nc2ccccc12", "Potency": "inconclusive: 15.8 µM [inhibitor, partial curve, poor fit]"}
{"compound": "Cc1ccc(CNC(=O)CO/N=C/c2ccc(C(C)(C)C)cc2)cc1", "Potency": "inconclusive: 15.8 µM [inhibitor, single point]"}
{"compound": "COc1ccccc1-c1cc2c(c3c1ccn3C)C1CCC2C1", "note": "(centres undefined)", "Potency": "inconclusive: 0.791 µM [activator, full curve, poor fit]"}
{"compound": "CCOc1ccc2nc(NC(=O)C34CC5CC(CC(NC(C)=O)(C5)C3)C4)sc2c1", "Potency": "inconclusive: 35.5 µM [inhibitor, single point]"}
{"compound": "COc1ccc(/C=C2/S/C(=N/N=C3\\CC4CCC3(C)C4(C)C)NC2=O)cc1", "note": "(centres undefined)", "Potency": "inconclusive: 11.2 µM [inhibitor, partial curve, poor fit]"}
{"compound": "Cc1ccccc1Nc1nn2c(=O)c3ccc(C(=O)NCc4cccs4)cc3nc2s1", "Potency": "inconclusive: 35.5 µM [inhibitor, single point]"}
{"compound": "O=C(Cc1ccccc1)N/N=C/c1cc(Br)cc(Br)c1O", "Potency": "inconclusive: 8.91 µM [inhibitor, partial curve, poor fit]"}
{"compound": "COC1=C(Nc2ccccc2)C(=O)c2ccccc2C1=O", "Potency": "inconclusive: 3.66 µM [activator, full curve]"}
{"compound": "Cc1ccc(/C=N/NC(=O)C(C)Oc2ccccc2[N+](=O)[O-])s1", "note": "(centres undefined)", "activity change, negative = inhibition": "inactive: -4.53%"}
{"compound": "Cc1ccc(S(=O)(=O)N2CCC(=O)N(C(COC(=O)Nc3ccccc3)Cc3ccccc3)CC2)cc1", "note": "(centres undefined)", "Potency": "inconclusive: 23.1 µM [inhibitor, partial curve, poor fit]"}
{"compound": "O=C(NCc1ccco1)c1csc2c1CCCC2", "activity change, negative = inhibition": "inactive: 8.1%"}
{"compound": "Cc1c2cnn(CC(=O)NCc3ccc(Cl)cc3)c(=O)c2c(C)n1Cc1ccc(F)cc1", "activity change, negative = inhibition": "inactive: -18.7% [at 46.1 µM]"}
{"compound": "CC(C)Nc1nc(Cl)nc(N(C#N)CN2C(=O)c3ccccc3C2=O)n1", "Potency": "inconclusive: 0.651 µM [inhibitor, partial curve]"}
{"compound": "Cc1ccc2sc(N(CCCN(C)C)C(=O)c3ccc(Br)s3)nc2c1C", "Potency": "inconclusive: 20 µM [inhibitor, single point]"}
{"compound": "COc1ccc(Cl)cc1NC(=O)COC(=O)CCNC(C)=O", "Potency": "inconclusive: 1.41 µM [activator, partial curve, poor fit]"}
{"compound": "Cc1ccc(-c2c[n+](CC(=O)c3ccc(Br)cc3)c3n2CCCCC3)cc1", "Potency": "inconclusive: 35.5 µM [inhibitor, single point]"}
{"compound": "CS(=O)(=O)Nc1ccc(C(=O)Nc2ccccc2Cl)cc1", "activity change, negative = inhibition": "inactive: 19.4% [at 46.1 µM]"}
{"compound": "Cc1ccc(C(=O)N/N=C\\c2ccc[nH]2)cc1[N+](=O)[O-]", "Potency": "active: 8.91 µM"}
{"compound": "Cc1ccc(Nc2nc(N)nc(CSc3nc4ccccc4s3)n2)cc1", "Potency": "inconclusive: 29.1 µM [inhibitor, single point]"}
{"compound": "COc1ccccc1C(=O)Nc1nnc(S(=O)(=O)N2CCC(C)CC2)s1", "Potency": "inconclusive: 7.08 µM [activator, partial curve]"}
{"compound": "COc1ccc(CCNC(=S)NC(=O)c2ccccc2)cc1C", "Potency": "inconclusive: 35.5 µM [inhibitor, single point]"}
{"compound": "COc1cc(C(=S)N2CCOCC2)cc(OC)c1OC(=O)c1ccccc1[N+](=O)[O-]", "Potency": "inconclusive: 0.355 µM [inhibitor, full curve, poor fit]"}
{"compound": "CCOC(=O)c1ccc(NC(=O)CC(=O)Nc2ccc3nc4n(c(=O)c3c2)CCCCC4)cc1", "activity change, negative = inhibition": "inactive: -0.495% [at 46.1 µM]"}
{"compound": "Cc1ccc(-c2csc(NC(=O)c3ccco3)n2)cc1C", "Potency": "inconclusive: 35.5 µM [inhibitor, single point]"}
{"compound": "COc1ccc(CNC(=O)COC(=O)Cc2ccc(Br)cc2)cc1", "activity change, negative = inhibition": "inactive: -13.4% [at 46.1 µM]"}
{"compound": "COc1ccc(C(=O)NNC(=O)c2ccc3ccccc3c2)cc1", "activity change, negative = inhibition": "inactive: -3.05%"}
{"compound": "CN(c1ccc(C(=O)N2CCN(Cc3ccccc3)CC2)cc1)S(=O)(=O)c1ccccc1", "Potency": "inconclusive: 35.5 µM [inhibitor, single point]"}
{"compound": "Fc1ccc(CSc2ccc3nnc(-c4cccnc4)n3n2)cc1", "Potency": "active: 12.6 µM"}
{"compound": "CC(=O)NC1=C(C#N)C(c2ccccc2)c2c(ccc3ccccc23)O1", "note": "(centres undefined)", "Potency": "inconclusive: 10.3 µM [inhibitor, partial curve]"}
{"compound": "O=C(CSc1n[nH]c(-c2cc(Cl)ccc2Cl)n1)NCCN1C(=O)CSC1=O", "Potency": "inconclusive: 3.98 µM [activator, full curve, poor fit]"}
{"compound": "N#CCSc1nc2ccc(N3CCCCC3)cc2c(=O)n1Cc1ccccc1", "Potency": "inconclusive: 18.3 µM [inhibitor, partial curve, poor fit]"}
{"compound": "O=C(CCc1nnc(CCCCc2ccccc2)o1)N1CCN(CCO)CC1", "Potency": "inconclusive: 31.6 µM [activator, single point]"}
{"compound": "Cc1cc(C)n(-c2nc3ccccc3nc2N2CCN(C(=O)c3ccc(Cl)cc3)CC2)n1", "Potency": "inconclusive: 0.13 µM [inhibitor, partial curve, poor fit]"}
{"compound": "O=C(c1ccc(F)cc1)N(Cc1ccccc1)C1CCS(=O)(=O)C1", "note": "(centres undefined)", "Potency": "inconclusive: 0.794 µM [inhibitor, partial curve, poor fit]"}
{"compound": "CCCCc1ccc(NC(=S)NCc2cccc(OC)c2)cc1", "Potency": "inconclusive: 35.5 µM [inhibitor, single point]"}
{"compound": "O=C(c1cn(-c2ccccc2)nc1-c1cccs1)N1CCN(c2ccc(F)cc2)CC1", "Potency": "inconclusive: 20 µM [inhibitor, single point]"}
{"compound": "Cc1c(NC(=S)NC(=O)c2cccc(Br)c2)c(=O)n(-c2ccccc2)n1C", "Potency": "inconclusive: 0.562 µM [inhibitor, partial curve, poor fit]"}
{"compound": "Cc1ccc2nc(-c3ccc(NC(=O)COc4ccc(Br)cc4Br)cc3)sc2c1", "Potency": "inconclusive: 10 µM [activator, partial curve, poor fit]"}
{"compound": "CC(C)CNC(=O)COC(=O)CNC(=O)c1cc(Cl)cc([N+](=O)[O-])c1", "activity change, negative = inhibition": "inactive: -5.93%"}
{"compound": "O=S(=O)(N/N=C/c1cccnc1)c1ccc(Cl)c(Cl)c1", "activity change, negative = inhibition": "inconclusive: 24.6% [activator] [at 46.1 µM]"}
{"compound": "CCOc1cc(/C=C(/C#N)C(=O)Nc2ccc(O)cc2)cc(Br)c1O", "Potency": "inconclusive: 5.62 µM [inhibitor, full curve]"}
{"compound": "Cc1cccc(-c2nc3nc(C)cc(NC(C)c4ccccc4)n3n2)c1", "note": "(centres undefined)", "activity change, negative = inhibition": "inactive: 0.166% [at 46.1 µM]"}
